# Experimental data taken from the supplement of paper PMC10735217.
# Where a name gives a salt, the structure may show the parent alone. Some of the results follow. Single values are uncertain here, since repeats match poorly.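 In a drug-repurposing library screen, luminescence reads luciferase driven by eight TEAD-binding elements, stably integrated into human kidney-derived cells. Compounds scoring over five robust Z scores above the plate mean are called hits.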
# Test system: HEK293A TEAD-LUC reporter
# Test: TEAD-luciferase reporter activity (YAP activation), robust Z score vs plate; higher = stronger YAP/TEAD activation
# Details: 24 h
SMILES,TEAD-luciferase reporter activity (compound concentration: 200 nM),TEAD-luciferase reporter activity (compound concentration: 2 uM),TEAD-luciferase reporter activity (compound concentration: 10 uM)
CN[C@@H](C)C(=O)N[C@H](C(=O)N1CCC[C@H]1CN(CCc1ccccc1)C(=O)C(F)(F)F)[C@@H](C)OCC#CC#CCO[C@H](C)[C@H](NC(=O)[C@H](C)NC)C(=O)N1CCC[C@H]1CN(CCc1ccccc1)C(=O)C(F)(F)F,inactive: -0.00457,inactive: -1.39,inactive: -1.19
CCOP(=O)(Cc1ccc(-c2nc3ccccc3s2)cc1)OCC [Fostedil],active: 8.75,active: 6.84,active: 8.88
CS(=O)(=O)N1CCN(Cc2cc3nc(-c4cccc5[nH]ncc45)nc(N4CCOCC4)c3s2)CC1 [pictilisib],inactive: -1.37,inactive: 0.668,inactive: 3.46
CCc1cccc2c3c([nH]c12)C(CC)(CC(=O)O)OCC3 [(R)-etodolac],–,inactive: -0.793,–
CCc1cccc2c3c([nH]c12)C(CC)(CC(=O)O)OCC3 (stereo unspecified),inactive: -0.677,–,inactive: -0.392
NC(=O)[C@@H]1CC[C@@H]2CN1C(=O)N2OS(=O)(=O)O [Avibactam sodium],inactive: -0.598,inactive: 0.139,inactive: -0.00938
COc1ccc(-n2nnnc2C(F)(F)F)cc1CN[C@H]1CCCN[C@H]1c1ccccc1,inactive: 0.651,inactive: 0.79,inactive: -0.758
CCCN(CCC)S(=O)(=O)c1ccc(C(=O)O)cc1 [probenecid57-66-9],inactive: -0.365,–,inactive: -0.899
CCCN(CCC)S(=O)(=O)c1ccc(C(=O)O)cc1 [Probenecid],–,inactive: -2.94,–
C[C@H](NC(=O)Cc1ccc(Cl)cc1)C(=O)Nc1ccc(C2S/C(=N\c3cccc(F)c3)N(Cc3ccco3)C2=O)cc1 (stereo partly specified),inactive: -0.251,inactive: 0.0756,inactive: -0.604
COc1nc(N)nc2[nH]cnc12,inactive: 3.47,inactive: -1.27,inactive: 0.477
Cc1ccc2c(c1)CCCN2C(=O)C1CCc2[nH]c(C)nc2C1 (stereo unspecified),inactive: -0.299,inactive: -1.42,inactive: -2.25
CCOC(=O)OC(C)OC(=O)[C@@H]1N2C(=O)[C@@H](NC(=O)[C@H](N)c3ccccc3)[C@H]2SC1(C)C (stereo partly specified),inactive: -0.994,–,active: 6.4
CCOC(=O)OC(C)OC(=O)[C@@H]1N2C(=O)[C@@H](NC(=O)[C@H](N)c3ccccc3)[C@H]2SC1(C)C (stereo partly specified) [bacampicillin],–,inactive: -2.31,–
CC1=C(C)C(=O)C(CCCCCCCCCC[P+](c2ccccc2)(c2ccccc2)c2ccccc2)=CC1=O,inactive: 2.42,inactive: 0.737,inactive: -0.058
COc1ccc(C(=O)N2CCC(N3Cc4ccccc4C3=O)CC2)cc1,inactive: -1.98,–,inactive: 0.037
OC[C@H]1O[C@H](O)[C@H](O)[C@@H](O)C1O[C@H]1O[C@H](COC2O[C@H](CO)[C@@H](O)[C@H](O)[C@H]2O)C(O[C@H]2O[C@H](CO)[C@@H](O)[C@H](O)[C@H]2O)[C@H](O)[C@H]1O (stereo partly specified),inactive: -0.902,inactive: 0.507,inactive: 0.656
O=C(Cc1cccc(OC(F)(F)F)c1)Nc1ccc(CCCCc2nnc(NC(=O)Cc3ccccn3)s2)nn1,inactive: -1.57,inactive: -1.62,inactive: -1.83
CC(C)C[C@@H](NC(=O)[C@H](N)CCCCN)C(=O)N[C@H](Cc1ccccc1)C(=O)N[C@H](CCCNC(=N)N)C(=O)N[C@H](Cc1cccc2ccccc12)C(=O)N[C@H](CCC(N)=O)C(=O)N[C@H](C)C(=O)N[C@H](CCCCN)C(=O)N[C@H](Cc1cccc2ccccc12)C(=O)O,inactive: -1.39,inactive: 1.8,inactive: -0.277
Nc1c2ccccc2nc2ccccc12,inactive: -0.466,inactive: 1.8,inactive: 0.775
CCOc1cccc(CN2CCCC23Cc2ccccc2CNC3=O)c1 (stereo unspecified),inactive: 0.612,–,inactive: -0.119
CC(C)CC(N)=O [isovaleramide],inactive: -0.996,inactive: -0.713,inactive: 1.35
COc1cc(OC)c(C(=O)CCCN2CCCC2)c(OC)c1,inactive: 1.01,–,inactive: -1.45
COc1cc(OC)c(C(=O)CCCN2CCCC2)c(OC)c1 [buflomedil],–,inactive: -1.98,–
O[C@H](C[C@H]1c2c(F)cccc2-c2cncn21)[C@H]1CC[C@H](O)CC1 [Navoximod],inactive: 0.648,–,inactive: 0.364
CNC(=O)CN1CCN2CCN(CC(=O)NC)CC(=O)[O][Gd]([O]C(=O)C2)[O]C(=O)C1,inactive: -1.08,inactive: -0.972,inactive: 2.1
c1ccc(C(c2ccccc2)N2CCN(CCCC3(c4ccccc4)OCCO3)CC2)cc1 [Dotarizine],inactive: -2.66,inactive: -0.905,inactive: 1.45

SMILES,TEAD-luciferase reporter activity (compound concentration: 200 nM),TEAD-luciferase reporter activity (compound concentration: 2 uM),TEAD-luciferase reporter activity (compound concentration: 10 uM)
COC(=O)c1ccccc1Nc1c(Cl)ccc(C)c1Cl,inactive: -1.44,inactive: -0.148,inactive: 0.101
Cc1nc(=O)c(C#N)c(NCc2cccnc2)[nH]1 [Pelri hydrochloride],inactive: -1.12,–,–
Cc1nc(=O)c(C#N)c(NCc2cccnc2)[nH]1 [Pelri   hydrochloride],–,–,inactive: 0.0437
COC(=O)CCC[N+](C)(C)C [Carpronium chloride],inactive: -2.35,inactive: -1,inactive: -0.819
Oc1nc2cc(Cl)ccc2c(O)c1-c1ccccc1,inactive: -1.04,inactive: -0.719,inactive: 3.93
CO[C@H](C(=O)NO)[C@@H](CC(C)C)C(=O)N[C@H](C(=O)Nc1ccccn1)C(C)(C)C,inactive: -0.622,inactive: -0.86,inactive: -1.48
COC(=O)Nc1cccc(C)c1CNc1cccn2c(C)c(C)nc12 [Pumaprazole],–,inactive: -1.67,–
COC(=O)Nc1cccc(C)c1CNc1cccn2c(C)c(C)nc12,inactive: 0.945,–,inactive: -1.3
CC(C)(C)NC(=O)c1ccc(OC/C(=C/F)CN)cc1,inactive: 0.847,inactive: -1.59,inactive: 0.753
O=C(/C=C/c1ccc2c(c1)OCO2)N1CCCCC1 [Ilepcimide],inactive: 3.65,inactive: -0.0869,inactive: 3.95
C[C@H](N)C(=O)NCC(=O)N[C@H]1CSSC[C@@H](C(=O)O)NC(=O)[C@H](CO)NC(=O)[C@H]([C@@H](C)O)NC(=O)[C@H](Cc2ccccc2)NC(=O)[C@H]([C@@H](C)O)NC(=O)[C@H](CCCCN)NC(=O)[C@H](Cc2c[nH]c3ccccc23)NC(=O)[C@H](Cc2ccccc2)NC(=O)[C@H](Cc2ccccc2)NC(=O)[C@H](CC(N)=O)NC(=O)[C@H](CCCCN)NC1=O [Somatostatin],inactive: 0.603,inactive: -1.22,active: 10.2
CC(C)(C)NC(=O)[C@@H]1C[C@@H]2CCCC[C@@H]2CN1C[C@@H](O)[C@H](Cc1ccccc1)NC(=O)[C@H](CC(N)=O)NC(=O)c1ccc2ccccc2n1,inactive: -1.22,–,inactive: 1.51
"CC(C)(C)NC(=O)[C@@H]1C[C@@H]2CCCC[C@@H]2CN1C[C@@H](O)[C@H](Cc1ccccc1)NC(=O)[C@H](CC(N)=O)NC(=O)c1ccc2ccccc2n1 [saquinavir, soft gel]",–,inactive: -1.42,–
CC(=O)Nc1c(-c2ccccc2)cccc1S(=O)(=O)NC(CCCc1ccc(N)cn1)C(=O)N1CCC(=C(F)F)CC1 (stereo unspecified),inactive: 0.254,inactive: -1.39,inactive: -1.64
COc1ccc2c(c1)C(O)(CCCN(C)C)c1ccccc1S2 (stereo unspecified),inactive: -1.18,inactive: -1.87,inactive: 0.0632
Cc1cc(C(=O)N[C@@H](CCC(=O)O)C(=O)O)sc1CCC1CNc2nc(N)[nH]c(=O)c2C1 (stereo partly specified) [Pelitrexol],inactive: -0.681,inactive: 0.499,inactive: 1.43
CC(=O)Nc1ccn([C@@H]2O[C@H](CO)[C@@H](O)[C@H]2O)c(=O)n1,inactive: -1.02,inactive: 3.07,inactive: 1.37
Nc1ccc(S(=O)(=O)N2CCCCCC2)cc1,inactive: -1.82,inactive: 0.164,inactive: -1.39
O=C(NCCCCCCCCNC(=O)C(Cl)Cl)C(Cl)Cl,inactive: -0.399,inactive: -1.64,inactive: -0.269
Cc1ccc(NC(=O)c2ccc(CN3CCN(C)CC3)cc2)cc1Nc1nccc(-c2cccnc2)n1,inactive: -0.477,–,inactive: 1.74
Cc1ccc(NC(=O)c2ccc(CN3CCN(C)CC3)cc2)cc1Nc1nccc(-c2cccnc2)n1 [imatinib mesilate],–,inactive: -0.412,–
COc1ccc(CCN(C)c2cn[nH]c(=O)c2Br)cc1OC,inactive: -0.72,inactive: -1.81,inactive: -0.739
CNc1nc(=O)n(C2C[C@@H](O)[C@@H](CO)O2)cc1C (stereo partly specified),inactive: -1.45,inactive: -0.993,inactive: -0.657
O=C(O)CCNC(=O)C1CCCN(C(=O)CCC2CCNCC2)C1 (stereo unspecified),inactive: -1.7,inactive: 0.937,inactive: 2.14
Cc1nc(C)c(-c2ccc([C@H]3CC[C@H](CC(=O)O)CC3)cc2)nc1C(N)=O,inactive: 0.399,inactive: -0.439,inactive: 0.0691
CC(=O)O[C@]1(C(C)=O)CC[C@H]2[C@@H]3C=C(Cl)C4=CC(=O)CC[C@]4(C)[C@H]3CC[C@@]21C [amadi    acetate],–,inactive: -1.13,–
CC(=O)O[C@]1(C(C)=O)CC[C@H]2[C@@H]3C=C(Cl)C4=CC(=O)CC[C@]4(C)[C@H]3CC[C@@]21C,inactive: -1.32,–,inactive: 0.777

# Reformatted: entries from further up
SMILES	TEAD-luciferase reporter activity (compound concentration: 200 nM)	TEAD-luciferase reporter activity (compound concentration: 2 uM)	TEAD-luciferase reporter activity (compound concentration: 10 uM)
CCOC(=O)OC(C)OC(=O)[C@@H]1N2C(=O)[C@@H](NC(=O)[C@H](N)c3ccccc3)[C@H]2SC1(C)C (stereo partly specified)	inactive: -0.994	–	active: 6.4
CCOC(=O)OC(C)OC(=O)[C@@H]1N2C(=O)[C@@H](NC(=O)[C@H](N)c3ccccc3)[C@H]2SC1(C)C (stereo partly specified) [bacampicillin]	–	inactive: -2.31	–
CC1=C(C)C(=O)C(CCCCCCCCCC[P+](c2ccccc2)(c2ccccc2)c2ccccc2)=CC1=O	inactive: 2.42	inactive: 0.737	inactive: -0.058
COc1ccc(C(=O)N2CCC(N3Cc4ccccc4C3=O)CC2)cc1	inactive: -1.98	–	inactive: 0.037
OC[C@H]1O[C@H](O)[C@H](O)[C@@H](O)C1O[C@H]1O[C@H](COC2O[C@H](CO)[C@@H](O)[C@H](O)[C@H]2O)C(O[C@H]2O[C@H](CO)[C@@H](O)[C@H](O)[C@H]2O)[C@H](O)[C@H]1O (stereo partly specified)	inactive: -0.902	inactive: 0.507	inactive: 0.656
O=C(Cc1cccc(OC(F)(F)F)c1)Nc1ccc(CCCCc2nnc(NC(=O)Cc3ccccn3)s2)nn1	inactive: -1.57	inactive: -1.62	inactive: -1.83
CC(C)C[C@@H](NC(=O)[C@H](N)CCCCN)C(=O)N[C@H](Cc1ccccc1)C(=O)N[C@H](CCCNC(=N)N)C(=O)N[C@H](Cc1cccc2ccccc12)C(=O)N[C@H](CCC(N)=O)C(=O)N[C@H](C)C(=O)N[C@H](CCCCN)C(=O)N[C@H](Cc1cccc2ccccc12)C(=O)O	inactive: -1.39	inactive: 1.8	inactive: -0.277
Nc1c2ccccc2nc2ccccc12	inactive: -0.466	inactive: 1.8	inactive: 0.775
CCOc1cccc(CN2CCCC23Cc2ccccc2CNC3=O)c1 (stereo unspecified)	inactive: 0.612	–	inactive: -0.119
CC(C)CC(N)=O [isovaleramide]	inactive: -0.996	inactive: -0.713	inactive: 1.35
COc1cc(OC)c(C(=O)CCCN2CCCC2)c(OC)c1	inactive: 1.01	–	inactive: -1.45
COc1cc(OC)c(C(=O)CCCN2CCCC2)c(OC)c1 [buflomedil]	–	inactive: -1.98	–
